Assay results taken from patent US20180209956.
Construct, isoform or probe ends are uncertain for at least one entry.

Sequences of proteins named here, by UniProt entry; tags and fusion partners are left off. A change or cut given only in a name is not applied to a line headed by its entry.
UniProt P43351: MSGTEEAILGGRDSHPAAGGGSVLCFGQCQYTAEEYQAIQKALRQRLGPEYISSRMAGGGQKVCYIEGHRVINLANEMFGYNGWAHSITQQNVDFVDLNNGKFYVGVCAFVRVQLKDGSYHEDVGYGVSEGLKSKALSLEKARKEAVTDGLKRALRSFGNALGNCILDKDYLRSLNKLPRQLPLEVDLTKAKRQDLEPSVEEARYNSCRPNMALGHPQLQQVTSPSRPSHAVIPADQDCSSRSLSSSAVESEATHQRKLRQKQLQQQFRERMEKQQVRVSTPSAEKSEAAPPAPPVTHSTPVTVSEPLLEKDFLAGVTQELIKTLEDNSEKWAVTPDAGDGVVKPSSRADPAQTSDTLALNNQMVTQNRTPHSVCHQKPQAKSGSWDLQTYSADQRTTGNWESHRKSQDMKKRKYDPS

Molecular target: RAD52 (Homo sapiens) (UniProt P43351)
Experiment: binding assay
Settings: FRET; 1 nM dsDNA with 10 nM RAD52, dsDNA bent upon binding; 30 mM Tris-acetate pH 7.5, 25 C; purified recombinant protein; protein details: 6xHis; label: Cy3 and Cy5

Sequence: CGTTGCGGATGGCTTAGAGCTTAATTGC / GCAATTAAGCTCAAGCCATCCGCAACG [Cy3-Oligo28-Cy5 / Oligo28-REV duplex]
- binding result: binds
